The other results are listed elsewhere or left out. Shown are side measurements of this screen, not its main read-out; they come without a call. Compounds called inactive in the main read-out are mostly missing here. Words in brackets tell the shape of the fitted curve; partial curves, single points and poor fits give uncertain potencies.

The values below come from PubChem BioAssay AID2685 (National Center for Advancing Translational Sciences (NCATS), 2010).

The nature of the assay: qHTS Assay for Lipid Storage Modulators in Drosophila S3 Cells.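 For cell number change: cells counted by Cell Tracker Red CMTPX staining in the red channel.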 The note with it: BODIPY lipid droplet fluorescence, 18-24 h; for cell number change: measured here: cell count max response, cells fed with added oleic acid. The essentials:
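Laser-scanning cytometry quantifies lipid droplet accumulation (500–530 nm total intensity; droplet/cell object ratio) in oleic acid-fed (400 uM added) Drosophila S3 cells treated with a concentration series. 20 uM Triacsin C defined 100% inhibition.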

The mark [1] stands for this setting: measured here: cell number channel AC50, cells fed with added oleic acid.
[2] abbreviates: measured here: lipid fluorescence (Fed channel) AC50, cells fed with added oleic acid.

A word on the AC50: it is the concentration giving half of the maximal activity seen. A low value points to activity at low concentration. For `CCOc1ccc(Br)cc1C1=CC(=O)C[C@H](c2ccc(OC)cc2)C1`, the cell number change is -30.8%. Moreover, the concentration at half-maximal activity (AC50) under setting [1] was 25.9 µM [falling, single point].
For `O=c1[nH]c(-c2ccc(Cl)cc2)nc2c1cnn2-c1ccccc1`, the cell number change is -23%. Further, the AC50 under setting [2] is 20.6 µM [falling, partial curve].
Regarding `CCCCn1nc(C(=O)NCc2ccccc2CN2CCCC2)c2ccccc2c1=O`, the cell number change came to 5.83%. The AC50 under setting [2] is 0.731 µM [rising, full curve].
On to `COc1ccc(N(C(=O)Cn2nnc(-c3ccc(F)cc3)n2)C(C)C(=O)NC2CCCC2)cc1OC` (stereo not drawn), for which the cell number change was determined as 2.82%. The AC50 under setting [2] is 32.6 µM [falling, single point].
As to `CC(C)c1nnc(NC(=O)CSc2ccccc2)s1`, the cell number change worked out at 21%. Moreover, the half-maximal activity concentration (AC50) under setting [2] was 0.164 µM [rising, full curve, poor fit].
As for `COc1ccc(CC(=O)Nc2nnc(C)s2)cc1`, the cell number change came out at 25.3%. Also, under setting [2], the half-maximal activity concentration (AC50) is 18.4 µM [rising, single point].
As to `N#CC(C#N)=CC1=C2OC(c3ccccc3)=CC(c3ccccc3)=C2CCC1`, the cell number change is 14.7%. Moreover, the AC50 under setting [1] is 0.411 µM [rising, partial curve, poor fit]. Also, the half-maximal activity concentration (AC50) under setting [2] was 0.461 µM [rising, partial curve].
On to `Cc1ccc(N2CCN(S(=O)(=O)c3ccc4oc(=O)ccc4c3)CC2)cc1Cl`, for which the cell number change turned out to be 34.6%. Under setting [1], the AC50 was 1.03 µM [rising, full curve, poor fit].
For the molecule `COc1ccc(C2/C(=C(/O)c3ccc4c(c3)CC(C)O4)C(=O)C(=O)N2CCN2CCOCC2)cc1` (stereo not drawn), the cell number change was -11.4%.
On to `Cc1nnc(SCC(=O)Nc2cccc(S(=O)(=O)N(C)c3ccccc3)c2)s1`, for which the cell number change is -2.03%. The half-maximal activity concentration (AC50) under setting [2] was 23.1 µM [falling, single point].
Regarding `COc1ccc(-c2cc(C)no2)cc1S(=O)(=O)N1CC(=O)Nc2ccccc21`, the cell number change is -0.298%. In addition, under setting [2], the AC50 is 0.116 µM [rising, full curve, poor fit].
Turning to `COC(=O)c1ccccc1NC(=O)CSc1n[nH]c(-c2ccco2)n1`, the cell number change was 9.66%. Moreover, the concentration at half-maximal activity (AC50) under setting [2] is 6.51 µM [falling, single point].
Turning to `Cc1ccc(NC(=O)c2cc3nc(C)cc(C)n3n2)cc1`, the AC50 under setting [1] is 2.59 µM [rising, partial curve] and the AC50 under setting [2] is 0.58 µM [rising, single point].
Consider `CCOc1ccccc1C(=O)Nc1ccccc1-c1ccccc1`, for which the cell number change was -0.282%. Moreover, the AC50 under setting [2] is 4.61 µM [rising, partial curve, poor fit].
Take `Cc1cccnc1NC(=O)c1ccc2nc(N)sc2c1`: the AC50 is, setting by setting: under setting [1], 0.13 µM [rising, full curve, poor fit]; under setting [2], 1.16 µM [rising, full curve].
In the case of `COc1ccc(CNc2cccc(C)n2)c(O)c1`, the cell number change is 3.63%. For the same molecule, the half-maximal activity concentration (AC50) under setting [2] is 0.366 µM [rising, full curve, poor fit].
As to `CC(NC(=O)COC(=O)c1cc(Cl)ccc1O)C1CC2CCC1C2` (stereo not drawn), the cell number change is -38.4%. In addition, the AC50 under setting [1] was 3.66 µM [falling, full curve]. In addition, the AC50 under setting [2] was 13 µM [falling, partial curve, poor fit].
As to `CSCCC(NC(=O)c1ccco1)C(=O)O` (stereo not drawn), the cell number change was -42.5%. Further, the AC50 under setting [1] was 2.59 µM [falling, full curve]. Besides, the AC50 under setting [2] was 0.651 µM [falling, full curve, poor fit].
`Cn1c(=O)c2cc(S(=O)(=O)NCCC(=O)Nc3ccc(Cl)cc3)ccc2n(C)c1=O`: the cell number change was 26.4%. Also, the AC50 under setting [2] was 20.6 µM [rising, single point].
`CC1=NN(c2ccc(C)c(C)c2)C(=O)/C1=C\C=C\c1ccc([N+](=O)[O-])o1`: the cell number change is -64.3%. Further, the AC50 under setting [1] was 23.1 µM [falling, single point]. In addition, the AC50 under setting [2] is 29.1 µM [falling, partial curve, poor fit].
On to `COc1cc(/C=N/NC(=O)c2cccc(N3CCCC3=O)c2)ccc1O`, for which the cell number change came to 32.1%. In addition, under setting [1], the half-maximal activity concentration (AC50) was 20.6 µM [rising, single point]. Also, the half-maximal activity concentration (AC50) under setting [2] was 29.1 µM [rising, partial curve, poor fit].
Consider `CNC(=O)CCc1[nH]c2ccccc2c1Sc1ccccc1`, for which the cell number change was -18.5%. The AC50 under setting [1] is 0.00411 µM [rising, full curve, poor fit]. Further, the half-maximal activity concentration (AC50) under setting [2] was 5.17 µM [rising, full curve].
As for `NC(=O)c1ccsc1NC(=O)CCS(=O)(=O)c1ccccc1`, the cell number change is -5.54%.
For the molecule `CN(C)c1nc(NCc2ccccc2)nc(N/N=C/c2ccccc2F)n1`, the AC50 under setting [2] was 0.00461 µM [falling, full curve, poor fit].
`CCOCCCNC1=C(Cl)C(=O)c2ccccc2C1=O`: the cell number change is -42.4%. Further, under setting [1], the concentration at half-maximal activity (AC50) was 18.4 µM [falling, single point]. For the same molecule, under setting [2], the AC50 is 29.1 µM [falling, single point].
For the molecule `COc1ccc(CCn2c(=S)[nH]c3cc(C(=O)NCc4ccco4)ccc3c2=O)cc1OC`, the cell number change was -28.9%. The concentration at half-maximal activity (AC50) under setting [2] is 3.66 µM [falling, single point].
`CC(=O)c1ccc(NC(=O)Nc2cccnc2)cc1`: the cell number change worked out at 28.6%. Moreover, the AC50 under setting [2] was 29.1 µM [rising, single point].
`COc1ccccc1CNC(=O)CNC(=O)c1cn(-c2ccccc2OC)c(=O)c2ccccc12`: the half-maximal activity concentration (AC50) is 6.51 µM [rising, single point] under setting [1] and 4.11 µM [rising, single point] under setting [2].
As for `COc1cc2c(cc1OC)CN(C(=O)c1oc3ccccc3c1C)CC2`, the cell number change was -5.71%. In addition, under setting [2], the concentration at half-maximal activity (AC50) was 29.1 µM [rising, single point].
For `COc1ccc(OC)c(NC(=O)c2nc(S(=O)(=O)Cc3ccccc3)ncc2Cl)c1`, the cell number change came out at 10.2%. Further, the concentration at half-maximal activity (AC50) under setting [1] is 6.51 µM [falling, single point]. Besides, the half-maximal activity concentration (AC50) under setting [2] was 0.92 µM [falling, full curve].
Take `COc1ccc(OC)c(NC(=O)CSc2nc3ccccc3c(=O)n2CCNC(C)=O)c1`: the cell number change is -20.9%. The concentration at half-maximal activity (AC50) under setting [2] was 18.4 µM [falling, single point].
On to `CCc1ccc(/C=C/c2c([N+](=O)[O-])c(=O)n(C)c(=O)n2C)cc1`, for which the cell number change is -18.9%. Moreover, the half-maximal activity concentration (AC50) under setting [2] is 3.66 µM [falling, partial curve].
For the molecule `O=C(O)CCCNC(=O)OCc1ccccc1`, the cell number change is 15.5%. Besides, the half-maximal activity concentration (AC50) under setting [2] was 0.116 µM [falling, full curve, poor fit].
Regarding `CCSc1nc2ccccc2n1S(=O)(=O)c1ccccc1`, the cell number change is 1.37%.
As to `O=C(c1ccc2[nH]ccc2c1)N1CCCC(Nc2ccccc2)C1` (stereo not drawn), the cell number change is -16.4%. Also, the half-maximal activity concentration (AC50) under setting [2] is 4.11 µM [rising, full curve, poor fit].
For the molecule `COc1ccc(NS(=O)(=O)c2cc(N/C(=N\S(=O)(=O)c3ccccc3)c3ccc(F)cc3)ccc2Cl)cc1`, the cell number change turned out to be 13.3%.
As to `CCNc1nc(NCC)n2c(SCc3ccc(F)cc3)nnc2n1`, the cell number change is -0.583%.
As for `Cc1ccc(C(=O)c2nc3c(n2O)CCCC3)cc1`, the cell number change is -9.05%. For the same molecule, the half-maximal activity concentration (AC50) under setting [1] was 4.61 µM [falling, partial curve, poor fit].
For the molecule `O=C(Nc1ccc(F)cc1F)c1cc2ncc(CCCl)cn2n1`, the cell number change is -0.792%. Moreover, the AC50 under setting [2] was 0.517 µM [falling, full curve, poor fit].
For the molecule `CC(C)(C)NS(=O)(=O)c1ccc(NS(C)(=O)=O)cc1`, the cell number change is -7.61%. Moreover, under setting [1], the AC50 is 0.259 µM [falling, full curve, poor fit]. The half-maximal activity concentration (AC50) under setting [2] was 1.3 µM [falling, partial curve].
As for `COC1=CC(=Cc2c(N)n3nc(CC(=O)N4CCCCC4)sc3nc2=O)C=C(OC)C1=O`, the cell number change is -98.9%. Further, the half-maximal activity concentration (AC50) under setting [1] was 3.26 µM [falling, full curve]. Moreover, the half-maximal activity concentration (AC50) under setting [2] is 1.84 µM [falling, full curve].
Take `O=C(CCCc1nc(-c2ccccc2)no1)NCc1cccnc1`: the cell number change is -30%. In addition, the concentration at half-maximal activity (AC50) under setting [1] is 9.2 µM [falling, partial curve]. The half-maximal activity concentration (AC50) under setting [2] was 10.3 µM [falling, partial curve, poor fit].
Take `O=C(COc1ccc(Cl)cc1)Nc1ccc(C(=O)O)cc1NC(=O)COc1ccc(Cl)cc1`: the cell number change is 26.9%. Besides, the half-maximal activity concentration (AC50) under setting [2] is 0.00461 µM [rising, full curve, poor fit].
For the molecule `CC(C)C(NS(=O)(=O)c1cccc2nsnc12)C(=O)NCCC1=CCCCC1` (stereo not drawn), the cell number change is -30.4%. In addition, the AC50 under setting [1] was 9.2 µM [falling, partial curve, poor fit]. Under setting [2], the half-maximal activity concentration (AC50) is 23.1 µM [falling, partial curve, poor fit].
Consider `CCc1nc(SCC(=O)N2CCCc3ccccc32)c2oc3ccccc3c2n1`, for which the cell number change is -14.3%. In addition, the AC50 under setting [1] is 6.51 µM [rising, single point].
On to `COc1cccc(N=C2SC(CC(=O)Nc3ccccc3)C(=O)N2Cc2ccccn2)c1` (stereo not drawn), for which the cell number change came to 75.6%. Moreover, the AC50 under setting [1] was 23.1 µM [rising, single point].
As to `CCCCc1cc(O)c(CCCC)c(O)c1`, the cell number change is -39.6%. Also, the AC50 under setting [1] was 16.4 µM [falling, single point]. For the same molecule, the AC50 under setting [2] was 16.4 µM [falling, single point].
Take `COc1ccccc1NC(=O)CN(c1ccc([N+](=O)[O-])cc1)S(=O)(=O)c1ccccc1`: the cell number change stood at 19.5%. Under setting [2], the AC50 is 2.91 µM [rising, partial curve, poor fit].
In the case of `Cc1ccc(C(=O)NCc2ccncc2)cc1S(=O)(=O)Nc1cccc(C)c1C`, the cell number change worked out at 5.49%.
For `O=C(c1cc(Cl)nc2ccccc12)N1CCN(Cc2ccc3c(c2)OCO3)CC1`, the cell number change worked out at 18.2%. For the same molecule, the half-maximal activity concentration (AC50) under setting [1] is 0.184 µM [rising, full curve, poor fit]. For the same molecule, under setting [2], the concentration at half-maximal activity (AC50) was 0.206 µM [rising, full curve].
With `COc1ccc(N(CC(=O)NCc2ccc(F)cc2)C(=O)c2snc(C(N)=O)c2N)cc1`, the cell number change was 2.92%.
For the molecule `CN(C)c1cccc(NC(=O)c2ccco2)c1`, the cell number change was -25.4%. Further, the AC50 under setting [2] is 14.6 µM [falling, partial curve, poor fit].
In the case of `Cn1c(=O)c2sccc2n2c(CCCC(=O)NC3CCN(Cc4ccccc4)CC3)nnc12`, the cell number change was -4.58%. Also, under setting [2], the AC50 is 29.1 µM [falling, single point].
Regarding `CCCS(=O)(=O)c1nc(S(=O)(=O)c2ccc(C)cc2)c(N2CCC(O)CC2)s1`, the cell number change is -48.5%. In addition, the AC50 under setting [1] was 32.6 µM [falling, single point]. Under setting [2], the AC50 is 23.1 µM [falling, single point].
`CCOC(=O)C1=C(COC(=O)c2cc(S(=O)(=O)N(C)C)ccc2C)NC(=O)NC1C` (stereo not drawn): the cell number change was -0.551%. Also, the AC50 under setting [1] was 6.51 µM [rising, single point]. For the same molecule, the AC50 under setting [2] is 23.1 µM [rising, partial curve].
